Among all 340,000 compounds or so, about 170 (0.05%) were called active. This list was built around the results that the source calls inconclusive (neither active nor inactive); the mix of calls is not that of the screen. Calls follow the shape of the dose curve; as a rule, active = well fitted inhibition curve with a large enough effect in the signal ratio, with a control signal flat (not every such curve was filed as active); inconclusive = small, poorly fitted or top-dose-only effect, or effect the other way, or a change in a side signal; inactive = flat fitted curve, though single readings scatter; the % refers to the signal ratio. Where the call is inconclusive, the potency comes from a doubtful curve fit.
Test: qHTS Assay to Find Inhibitors of Chronic Active B-Cell Receptor Signaling;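 as to activity change, negative = inhibition: plate controls were basal doxycycline-induced cells for no effect and cells given 10 µM MG132 for full effect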
Settings: ABC-DLBCL IkBa-CBG/CBR reporter, luminescence ratio (green luciferase fused to IkBa over red control in TMD8 lymphoma cells), 4 h; activity change, negative = inhibition: at 46.1 µM (top of the series)
Summary of the method: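 TMD8 ABC-DLBCL cells carrying doxycycline-inducible green luciferase fused to IkappaBalpha plus unfused red luciferase were exposed to compounds (up to 46 uM) for 4 hrs at 37C. Activity came from the overlap-corrected green/red luminescence ratio.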
Potency is read from the fitted curve at half-maximal effect.

Compound	activity change, negative = inhibition	Potency
CC(=O)c1cc(-c2ccccc2)n(CC(=O)N2CCC(C)CC2)c1C	inconclusive: 17.5%	–
Cc1ccccc1NS(=O)(=O)c1cc(C(=O)NCCC2=CCCCC2)ccc1Cl	inconclusive: 3.67%	–
Clc1cccc(CN2CCc3c([nH]c4ccccc34)C2)c1	inconclusive: -5.67%	–
Cc1ccc(C(=O)NC(=S)Nc2ccccc2C(F)(F)F)c(C)c1	inconclusive: 1.57%	–
CN(C)c1nc(OCCOC(=O)Nc2ccc(Cl)cc2Cl)nc(N(C)C)n1	inconclusive: 0.458%	–
Clc1ccc(Nc2nc(NCCN3CCOCC3)nc(N3CCOCC3)n2)cc1	inactive: -21.6%	–
Cc1cc(-c2nnc(SCC(=O)Nc3nc(-c4ccc(Cl)cc4)cs3)o2)no1	inconclusive: 24.6%	–
Nc1ccc(C(=O)N/N=C/c2c[nH]c3ccccc23)cc1	–	inconclusive: 12.6 µM [falling, partial curve]
COc1ccccc1NC(=S)NNC(=O)c1nn(C)cc1Cl	–	inconclusive: 17.8 µM [falling, partial curve]
COc1ccc(C(Nc2ccccn2)c2c(NC(=O)c3ccco3)sc(C)c2C)cc1OC (stereo not drawn)	–	inconclusive: 29.1 µM [falling, single point]
O=C(CSc1nnc(-c2ccccc2)c2ccccc12)NCC1CCCO1 (stereo not drawn)	–	inconclusive: 12.6 µM [falling, partial curve]
COc1cc(O)c(CC=C(C)C)c(O)c1C(=O)CCc1ccc(O)cc1	–	inconclusive: 35.5 µM [falling, single point]
COc1ccccc1CNc1cncnc1	inactive: 2.34%	–
Cc1c(-c2ccccc2)[nH]n2c(=O)c3c(nc12)CCCC3	inconclusive: 8.46%	–
COCCNC(=O)/C(C#N)=C\c1ccc(CNC(=O)C(=O)Nc2ccc(C)c(C)c2)o1	inconclusive: 1.2%	–
O=C(Nc1ccc2c(c1)OCO2)c1ccc[n+]([O-])c1	inactive: -3.44%	–
O=C(N/N=C/c1cccnc1)c1cccc(S(=O)(=O)Nc2cccc(Cl)c2)c1	inactive: 0.806%	–
COc1ccc(C2SCCN2C(=O)c2ccc([N+](=O)[O-])cc2)cc1 (stereo not drawn)	inconclusive: 1.15%	–
O=C(Nc1cccc(S(=O)(=O)N2CCOCC2)c1)C1CCCC1	inactive: 3.59%	–
FC(F)(F)c1cccc(-c2cc3ccccc3nc2N2CCCC2)c1	–	inconclusive: 5.17 µM [rising, partial curve, poor fit]
COC(=O)c1sccc1NC(=O)c1ccc(C)cc1	inactive: -0.314%	–
Cc1cc(C)c(S(=O)(=O)N2CCCCCC2)cc1Br	inconclusive: 2.89%	–
CC(=O)N1CCC(=NNc2nc3ccccc3s2)CC1	–	inconclusive: 31.6 µM [falling, single point]
Cc1cccc(CNC(=O)c2ccc3nc(Cc4ccccc4F)oc3c2)n1	inactive: -1.2%	–
CCOC(=O)c1c(CC(C)C)csc1/N=C/C1=C(O)CCCC1=O	inconclusive: 17.7%	–
COc1ccc(C(Nc2ccccn2)c2c(NC(=O)c3ccco3)sc(C)c2C)cc1 (stereo not drawn)	inconclusive: -1.1%	–
Cc1ccccc1CNC(=O)Nc1ccc(Cl)cc1	inconclusive: -26.8%	–

Compound	activity change, negative = inhibition	Potency
Cn1c(-c2ccc3nc(N)sc3c2)nc2cc(N)ccc21	–	inconclusive: 18.4 µM [falling, single point]
CCCN(CCC)C(=O)c1oc2ccccc2c1NC(=O)Cc1cccc(OC)c1	inconclusive: 8.15%	–
Cc1ccc2nc(SCC(=O)NC3CCCc4ccccc43)[nH]c2c1 (stereo not drawn)	inactive: 11.2%	–
C=CCNC(=S)NNC(=O)c1ccc2c(c1)OCO2	inconclusive: -23.8%	–
COc1cccc(-c2nc(N3CCN(C)CC3)c3ccccc3n2)c1O	–	inconclusive: 3.16 µM [activator, full curve, poor fit]
CCS(=O)(=O)N1Cc2ccccc2CC1C(=O)N1CCN(c2cccc(C)c2C)CC1 (stereo not drawn)	inactive: 3.03%	–
CCCc1cc(=O)oc2c3c(cc(OCC(=O)NCCCn4ccnc4)c12)OC(C)(C)CC3	–	inconclusive: 35.5 µM [rising, partial curve, poor fit]
COc1ccc(OC(=O)CCc2c[nH]c3ccccc23)cc1	inconclusive: 4.1%	–
Cc1ccc2nc(-c3ccc(NC(=O)C4CCCO4)cc3)[nH]c2c1 (stereo not drawn)	inconclusive: 18%	–
CCOc1cc(C2C(C#N)=C(N)Oc3n[nH]c(CC)c32)ccc1OCCN1CCOCC1 (stereo not drawn)	inconclusive: -29.4%	–
Cc1cccc(C)c1NC(=O)N1C(C(=O)O)CSC1C(=O)O (stereo not drawn)	inconclusive: -6.86%	–
O=C(O)c1ccc(N=NN2CCOCC2)cc1	–	inconclusive: 5.8 µM [falling, partial curve]
O=C(NS(=O)(=O)Nc1ccccc1)C1=C(N2CCCC2)COC1=O	inactive: 0.813%	–
O=C(COC(=O)c1ccc(NS(=O)(=O)c2cccs2)cc1O)Nc1ccc(F)cc1	inconclusive: -13.4%	–
COc1cccc(-n2c(SCC(=O)NCCC3=CCCCC3)nc3n[nH]c(C)c3c2=N)c1	inconclusive: 7.03%	–
O=C(C[n+]1ccc(C(=O)NCc2ccccc2)cc1)c1ccc2c(c1)OCCO2	–	inconclusive: 17.8 µM [falling, partial curve, poor fit]
Nc1[nH]n(-c2ccccc2)c(=O)c1N=Nc1ccccc1[N+](=O)[O-]	–	inconclusive: 4.61 µM [falling, partial curve, poor fit]
CC(=O)N(c1ccc2oc(=O)sc2c1)S(=O)(=O)c1ccc(C)cc1	–	inconclusive: 10 µM [falling, partial curve]
Cn1nccc1C(=O)Nc1ccccc1C(=O)O	inconclusive: -0.177%	–
O=C(c1ccc(S(=O)(=O)N2CCCC2)cc1)N1CCN(Cc2ccc3c(c2)OCO3)CC1	inactive: 1.68%	–
O=C(NN=C1CCCCCC1)c1cc2ccccc2cc1O	inactive: 0.501%	–
Cc1ccnc2nc(C(=O)N3CCN(S(=O)(=O)c4ccccc4)CC3)nn12	inconclusive: 9.35%	–
O=C(NNC1=Nc2ccccc2SC1)c1ccccc1F	–	inconclusive: 35.5 µM [falling, single point]
S=C(NCc1ccccc1)N1CCN(c2ccccc2)CC1	inactive: -0.217%	–
COc1ccc(-c2ccccc2)cc1NCc1ccccc1C	inactive: 10.1%	–
O=C(NCc1cccnc1)C1CCN(Cc2cc3ccccc3n2Cc2ccccc2)CC1	–	inconclusive: 15.8 µM [falling, single point]

Sorted by length of the SMILES (smallest number first): 5 of the compounds above.
Compound	activity change, negative = inhibition	Potency
O=C(NN=C1CCCCCC1)c1cc2ccccc2cc1O	inactive: 0.501%	–
COc1ccc(OC(=O)CCc2c[nH]c3ccccc23)cc1	inconclusive: 4.1%	–
Cc1ccc2nc(-c3ccc(NC(=O)C4CCCO4)cc3)[nH]c2c1 (stereo not drawn)	inconclusive: 18%	–
O=C(COC(=O)c1ccc(NS(=O)(=O)c2cccs2)cc1O)Nc1ccc(F)cc1	inconclusive: -13.4%	–
COc1cccc(-n2c(SCC(=O)NCCC3=CCCCC3)nc3n[nH]c(C)c3c2=N)c1	inconclusive: 7.03%	–
